The source of these data is patent US20250034184A1, “QUATERNARY PHOSPHONIUM COMPOUNDS AND USES THEREOF” (Emory University, priority 2021, published 2025).

Test in all cases: microbe, parasite or virus in culture
Common to all, as to format: cell-based

The subject of test [1] is Enterococcus faecalis (OG1RF). The conditions noted are these: read-out: Minimum Inhibitory Concentration E. faecalis.
Test [2] concerns Pseudomonas aeruginosa (PAO1). The conditions noted are these: PAO1, read-out: Minimum Inhibitory Concentration Pa.
Test [3] relates to hospital-acquired methicillin-resistant S. aureus (HA-MRSA; ATCC 33591). The conditions noted are these: Staphylococcus aureus, read-out: Minimum Inhibitory Concentration HA-MRSA.
For test [4], the system named is Escherichia coli (MC4100). As to conditions: read-out: Minimum Inhibitory Concentration E. coli.
The subject of test [5] is community-acquired methicillin-resistant S. aureus (CA-MRSA; USA 300-0114). The conditions noted are these: Staphylococcus aureus, read-out: Minimum Inhibitory Concentration CA-MRSA.
Test [6] relates to methicillin-susceptible S. aureus (SH1000). The conditions noted are these: Staphylococcus aureus, MSSA, read-out: Minimum Inhibitory Concentration MSSA.

On to `CCCCCCCCCCCCCCCC[n+]1ccccc1` [CPC, cetylpyridinium chloride, reference compound], for which the MIC in test [1] worked out at 250 µM; in test [2] it was 250 µM; in test [3], 2 µM; in test [4], 32 µM; in test [5], 1 µM; in test [6], 1 µM.
